Values from PubChem BioAssay AID1259424 (University of Nebraska Medical Center, 2018)
The deposit covers about 14,000 reagents; shown is an unselected part. 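Higher correlation or smaller distance means closer resemblance to KSR1 loss; control wells, including KSR1 knockdowns, recur on many plates.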 A reagent listed more than once was tested more than once; the source does not tell the runs apart. Further read-outs or replicates are left out here. Not given: the time to read-out.

Aim: 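Seek colon cancer survival genes behaving like KSR1, using a six-gene signature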 (primary screen)
Cells: human HCT116 colon cancer cells
Knock-down reagent: siRNA pool against human genes, 50 nM
Read-out: 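Six signature mRNAs by branched-DNA multiplex assay, scaled to two housekeeping genes and non-targeting median, log2; matched to mean KSR1 knockdown profile by Pearson correlation and euclidean distance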
Direction: mean correlation with KSR1 profile: higher = expression change more like KSR1 knockdown; mean distance from KSR1 profile: higher = expression change less like KSR1 knockdown

After knock-down of MAP3K12 the results were mean correlation with KSR1 profile 0.102; mean distance from KSR1 profile 1.54. Against OR2C3, the entry reads mean correlation with KSR1 profile 0.423; mean distance from KSR1 profile 1.94. With knock-down of LAMP3, the screen gave mean correlation with KSR1 profile -0.209; mean distance from KSR1 profile 2.06. GTSE1 gave mean correlation with KSR1 profile -0.251; mean distance from KSR1 profile 1.85. Knock-down of TRAPPC10 came out at: mean correlation with KSR1 profile -0.097; mean distance from KSR1 profile 2.45. Against TIRAP, the values are mean correlation with KSR1 profile -0.4; mean distance from KSR1 profile 1.78.

With knock-down of SLC12A6, the record shows mean correlation with KSR1 profile -0.476; mean distance from KSR1 profile 2.03. Against TMEM222, the entry reads mean correlation with KSR1 profile 0.892; mean distance from KSR1 profile 1.66. USP6NL showed mean correlation with KSR1 profile -0.33; mean distance from KSR1 profile 2.28. With knock-down of ZNF556, the record shows mean correlation with KSR1 profile 0.731; mean distance from KSR1 profile 1.27.

A run of entries from the list above, as a working copy:
OR2C3 → mean correlation with KSR1 profile = 0.423; mean distance from KSR1 profile = 1.94
LAMP3 → mean correlation with KSR1 profile = -0.209; mean distance from KSR1 profile = 2.06
GTSE1 → mean correlation with KSR1 profile = -0.251; mean distance from KSR1 profile = 1.85
TRAPPC10 → mean correlation with KSR1 profile = -0.097; mean distance from KSR1 profile = 2.45
TIRAP → mean correlation with KSR1 profile = -0.4; mean distance from KSR1 profile = 1.78

Continued:
PREP gave mean correlation with KSR1 profile -0.739; mean distance from KSR1 profile 1.59. Knock-down of ITGB8 resulted in: mean correlation with KSR1 profile -0.212; mean distance from KSR1 profile 2.05. With knock-down of UBOX5 the results were mean correlation with KSR1 profile -0.522; mean distance from KSR1 profile 1.62. Silencing of GABRQ gave: mean correlation with KSR1 profile -0.0767; mean distance from KSR1 profile 1.72. For CCNT1, the values are mean correlation with KSR1 profile -0.0468; mean distance from KSR1 profile 1.9. ATM scored mean correlation with KSR1 profile 0.645; mean distance from KSR1 profile 1.35.

Against GRK4 the deposit lists mean correlation with KSR1 profile 0.33; mean distance from KSR1 profile 2.8. GRK4 scored mean correlation with KSR1 profile 0.146; mean distance from KSR1 profile 2.28. Depletion of TSPYL2 resulted in: mean correlation with KSR1 profile -0.471; mean distance from KSR1 profile 1.74. For ATF6B, the values are mean correlation with KSR1 profile -0.221; mean distance from KSR1 profile 3.74. RNF14 showed mean correlation with KSR1 profile -0.228; mean distance from KSR1 profile 1.48. Against HHIP, the entry reads mean correlation with KSR1 profile -0.248; mean distance from KSR1 profile 2.62.

For ABCG5, the values are mean correlation with KSR1 profile 0.485; mean distance from KSR1 profile 3.23. With knock-down of BRDT, the screen gave mean correlation with KSR1 profile -0.0284; mean distance from KSR1 profile 2.46. Depletion of GUCD1 resulted in: mean correlation with KSR1 profile 0.381; mean distance from KSR1 profile 1.83. IP6K2 showed mean correlation with KSR1 profile -0.0444; mean distance from KSR1 profile 2.94. Knock-down of SNAPC1 gave: mean correlation with KSR1 profile -0.059; mean distance from KSR1 profile 2.05. After knock-down of TFDP2 the results were mean correlation with KSR1 profile 0.328; mean distance from KSR1 profile 1.83.
